Experimental data published in PMC9950535, “Divalent metal cofactors differentially modulate RadA-mediated strand invasion and exchange in Saccharolobus solfataricus” (Bioscience Reports, 2023).

Target: T1, SsoRadA (Saccharolobus solfataricus) (UniProt Q55075)
T1 sequence (looked up, limits assumed): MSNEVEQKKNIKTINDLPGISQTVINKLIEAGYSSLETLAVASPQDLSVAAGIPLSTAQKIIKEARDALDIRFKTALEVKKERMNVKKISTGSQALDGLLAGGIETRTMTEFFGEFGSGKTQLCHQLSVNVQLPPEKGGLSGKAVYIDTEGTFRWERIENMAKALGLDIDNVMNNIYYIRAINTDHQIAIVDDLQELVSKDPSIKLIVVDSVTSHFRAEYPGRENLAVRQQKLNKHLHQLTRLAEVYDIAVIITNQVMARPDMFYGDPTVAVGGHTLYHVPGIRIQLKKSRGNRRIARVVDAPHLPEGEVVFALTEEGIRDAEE
Assay: filter binding
Settings: Filter binding: 40 mM HEPES pH 7.0, 50 mM KCl, 10 mM CaCl2, MgCl2 or MnCl2, 20 pmol SsoRadA, 3 uM ATP where included, ssDNA varied, temperature not stated, recombinant protein, single-stranded DNA; for binding result: no ATP, no detectable binding at ssDNA 10-fold above the Kd with ATP

ACAGCACCAATGAAATCTATTAAGCTCCTCATCGTCCGCAAAAATATCGTCACCTCAAAAGGA [63-mer oligonucleotide]
Kd (10 mM Ca2+, 3 uM ATP): 187 nM
binding result (10 mM Ca2+): no binding
binding result (10 mM Mg2+): no binding

The exact form of at least one protein or probe is not confirmed. No signal at the amounts used counts as a negative. Protein sequences can lack the tags named with them.
